# Reference: patent US20240327535A1 (EISAI R AND D MANAGEMENT, published 2024)
# Chains of the proteins cited; added tags and fusions are not shown. Lines headed by an entry give the natural chain unless they say otherwise; changes in a name come on top. A line that says so, or that is headed by a name, gives the form on record, which may keep a tag or linker.
# extracellular domain of rhesus monkey BCMA (F7FFA0, form named): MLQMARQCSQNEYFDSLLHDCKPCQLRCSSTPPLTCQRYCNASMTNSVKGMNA
# These are yes or no findings as the source states them, for the method shown. Some entries that bind do so weakly or less than the wild type.
# Target: extracellular domain of rhesus monkey BCMA (rhesus monkey) (UniProt F7FFA0)
# Test: Octet BLI; Fab 200 nM
binder,measurement,value
"AB200-R1a-Fab_Vk6 (Fab, V domains shown, also called AB200 kappa variant 6; AB200_Vk6_Fab) VH: QVQLVQSGAEVKKPGSSVKVSCKASGGTFSNYWMHWVRQAPGQGLEWMGATYRGHSDTYYNQKFKGRVTITADKSTSTAYMELSSLRSEDTAVYYCARGAIYHGYDVLDNWGQGTLVTVSS VL: DIQMTQSPSSLSASVGDRVTITCSATQDISNYLNWYQQKPGKAPKLLIYFTSNLQSGVPSRFSGSGSGTDFTLTISSLQPEDFATYYCQQYRKLPWTFGQGTKLEIKR",binding,binds
